# In PMC11712024:
# Chains of the proteins cited; added tags and fusions are not shown.
# UniProt P54609: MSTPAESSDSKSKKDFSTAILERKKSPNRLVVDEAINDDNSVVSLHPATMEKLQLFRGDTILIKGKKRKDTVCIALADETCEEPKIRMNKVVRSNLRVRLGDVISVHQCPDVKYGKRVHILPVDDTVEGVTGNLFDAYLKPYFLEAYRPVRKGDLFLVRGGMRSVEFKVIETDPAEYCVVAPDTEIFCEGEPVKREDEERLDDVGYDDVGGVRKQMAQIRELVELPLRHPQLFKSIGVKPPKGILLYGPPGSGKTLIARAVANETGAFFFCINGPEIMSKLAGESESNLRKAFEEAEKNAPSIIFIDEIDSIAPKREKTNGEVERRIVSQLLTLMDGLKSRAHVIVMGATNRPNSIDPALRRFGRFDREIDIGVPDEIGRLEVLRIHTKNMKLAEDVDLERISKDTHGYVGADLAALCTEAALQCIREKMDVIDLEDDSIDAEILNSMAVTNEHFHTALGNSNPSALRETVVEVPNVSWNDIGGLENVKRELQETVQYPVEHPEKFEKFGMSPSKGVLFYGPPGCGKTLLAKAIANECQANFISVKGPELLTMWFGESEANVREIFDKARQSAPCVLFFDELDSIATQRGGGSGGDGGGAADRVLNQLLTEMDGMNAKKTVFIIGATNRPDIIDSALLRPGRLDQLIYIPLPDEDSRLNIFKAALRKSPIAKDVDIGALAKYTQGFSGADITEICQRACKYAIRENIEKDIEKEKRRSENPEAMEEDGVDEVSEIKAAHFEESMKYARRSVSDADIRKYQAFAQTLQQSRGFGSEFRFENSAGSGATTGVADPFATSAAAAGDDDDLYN
# Results are given in words; binding and its absence hold for the method and conditions named. Binding seen in cells or lysates may run through a third protein. Some binding calls cover weakened binding; strength is not graded here.
# Biological target: GFP-CDC48 (Arabidopsis thaliana) (UniProt P54609)
# Assay: co-IP; GFP-CDC48 transiently co-expressed with RFP-tagged OTU variants in N. benthamiana leaves; GFP-CDC48 purified with GFP-trap beads, immunoblot
row,binding,Binder
1,binds,"RFP-OTU1 (enzyme, UniProt Q8LG98 1-306) MQNQIDMVKDEAEVAASISAIKGEEWGNCSSVEDQPSFQEEEAAKVPYVGDKEPLSSLAAEYQSGSPILLEKIKILDSQYIGIRRTRGDGNCFFRSFMFSYLEHILESQDRAEVDRIKVNVEKCRKTLQNLGYTDFTFEDFFALFLEQLDDILQGTEESISYDELVNRSRDQSVSDYIVMFFRFVTAGDIRTRADFFEPFITGLSNATVDQFCKSSVEPMGEESDHIHITALSDALGVAIRVVYLDRSSCDSGGVTVNHHDFVPVGITNEKDEEASAPFITLLYRPGHYDILYPKPSCKVSDNVGK"
2,binds,"OTU1-RFP (enzyme, UniProt Q8LG98 1-306) MQNQIDMVKDEAEVAASISAIKGEEWGNCSSVEDQPSFQEEEAAKVPYVGDKEPLSSLAAEYQSGSPILLEKIKILDSQYIGIRRTRGDGNCFFRSFMFSYLEHILESQDRAEVDRIKVNVEKCRKTLQNLGYTDFTFEDFFALFLEQLDDILQGTEESISYDELVNRSRDQSVSDYIVMFFRFVTAGDIRTRADFFEPFITGLSNATVDQFCKSSVEPMGEESDHIHITALSDALGVAIRVVYLDRSSCDSGGVTVNHHDFVPVGITNEKDEEASAPFITLLYRPGHYDILYPKPSCKVSDNVGK"
3,binds,"RFP-OTU2 (enzyme, UniProt Q9LPT6 1-208) MEGIIVRRVIPSDNSCLFNAIGYVMDKDKNKAPELRQVIAAAVASNKEKYNEAFLGKLNEEYCAWILNPDKWGGAIELSILADYYGREIAAYDIQTSRCDLYGQTRNYDERVMLIYDGLHYDALALSPFEGAEEDFDMTIYPVGKDRSIGSIEGLALNLVKDQQRKRSYTDTANFTLRCGVCQIGVIGQKEAVEHAQATGHVNFQEYK"
